Measured values taken from PubChem BioAssay AID504467 (National Center for Advancing Translational Sciences (NCATS), 2011).
Among all 330,000 compounds or so, about 7,700 (2.3%) were called active. The shares of active, inactive and inconclusive entries below differ from those in the screen. Calls come from the whole dose curve; as a rule, active = well fitted inhibition curve with a large enough effect; inconclusive = small, poorly fitted or top-dose-only effect, or effect the other way; inactive = flat fitted curve, though single readings scatter. Potencies beside an inconclusive call are fits to weak or partial responses and may not hold up.
Potency is the fitted concentration of half-maximal effect.

Assay: qHTS screen for small molecules that inhibit ELG1-dependent DNA repair in human embryonic kidney (HEK293T) cells expressing luciferase-tagged ELG1; note: nearly all actives have a fitted effect of over 55% in size
Settings: HEK293T ELG1-luciferase reporter, luminescence, 16 h, DNA damage induced by 5-fluorouridine; series mostly up to 46.1 µM
Method in brief: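 DMSO vehicle served as the neutral condition. Each well held 2,000 cells given 5-fluorouridine plus compound; after 16 hr at 37 °C/5% CO2, ONE-Glo was added and luciferase measured 30 min later.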
For `Cc1ccc(/C([O-])=C(/C(=S)NCc2ccccc2)[n+]2ccccc2)cc1[N+](=O)[O-]`, the Potency was “inactive”. With `NC(=O)c1ccc(N2CCN(c3ccccc3O)CC2)c([N+](=O)[O-])c1` the Potency was active: 16.4 µM. With `Cc1ccc(S(=O)(=O)N2CCN(C(=O)Cn3c(=O)oc4ccccc43)CC2)cc1` the Potency was inconclusive: 3.66 µM [activator, single point]. In the case of `O=C(COc1ccc(Br)cc1Br)NC(=S)N1CCCc2ccccc21`, the Potency is reported as inconclusive: 23.1 µM [activator, single point]. In the case of `OC(CN1CCOCC1)CN(c1ccccc1)c1ccccc1` (stereo not given), the Potency is reported as “inactive”. In the case of `CCCC(=O)Nc1ccc(S(=O)(=O)N2CCC(c3nc4ccccc4[nH]3)CC2)cc1`, the Potency is reported as inconclusive: 25.9 µM [inhibitor, single point]. In the case of `O=[N+]([O-])c1cc(Cl)c(O)c2ncccc12`, the Potency is reported as inconclusive: 6.51 µM [inhibitor, partial curve]. With `O=C1C(c2ccncc2)=C(O)c2ccccc21` the Potency was inconclusive: 2.91 µM [activator, full curve]. In the case of `c1ccc(CSc2ccc(-c3cccnc3)nn2)nc1`, the Potency is reported as inconclusive: 20.6 µM [activator, single point]. With `COc1cc(C(C2C(=O)CC(C)(C)CC2=O)C2C(=O)CC(C)(C)CC2=O)ccc1O` the Potency was inconclusive: 16.4 µM [activator, partial curve]. In the case of `Cc1ccc(C(=O)OCC(=O)Nc2cccc(Cl)c2C)c(O)c1`, the Potency is reported as inconclusive: 18.3 µM [activator, partial curve, poor fit]. With `Cc1cc(OCC(=O)Nc2ccc(CN3CCOCC3)cc2)c2c(C)c(C)c(=O)oc2c1` the Potency was inconclusive: 18.3 µM [activator, partial curve]. In the case of `COc1ccc(C/C(C)=N/NC(=S)Nc2ccccc2)cc1`, the Potency is reported as inconclusive: 18.4 µM [activator, single point]. In the case of `COc1ccc(-c2cc(C(F)(F)F)n3ncc(C(=O)N4CCCCC4c4cccnc4)c3n2)cc1` (stereo not given), the Potency is reported as inconclusive: 18.3 µM [inhibitor, single point]. For `CC(NCC(=O)NC(=O)NC1CCCC1)c1ccc(Cl)cc1Cl` (stereo not given), the Potency was inconclusive: 25.9 µM [activator, single point]. With `Cc1ccc(NC(=O)Cc2c(Cl)cccc2Cl)cc1S(=O)(=O)N(C)C` the Potency was inconclusive: 29.1 µM [inhibitor, single point]. In the case of `COC(=O)COc1ccc(S(=O)(=O)NCc2ccncc2)cc1`, the Potency is reported as inconclusive: 0.126 µM [inhibitor, full curve, poor fit]. In the case of `CC(Sc1nnc2ccccn12)C(=O)N1CCc2ccccc2C1` (stereo not given), the Potency is reported as inconclusive: 23.1 µM [activator, partial curve]. In the case of `Cn1cc(C(=O)N2CCc3ccccc32)cn1`, the Potency is reported as inconclusive: 20.6 µM [activator, partial curve]. For `O=[N+]([O-])c1ccc(O)c(NC(=S)Nc2ccccc2)c1`, the Potency was inconclusive: 23.1 µM [activator, single point]. In the case of `CCCOC(=O)/C(C)=N\NC(=O)c1ccco1`, the Potency is reported as inconclusive: 20.6 µM [activator, single point]. For `COc1ccc(-n2cc(CN3CCCC3)c(-c3cccc(F)c3)n2)cc1`, the Potency was “inactive”. For `COc1cccc(NC(=S)N2CCC(Cc3ccccc3)CC2)c1`, the Potency was inconclusive: 20.6 µM [inhibitor, single point]. For `CN(C(=O)CN1C(=O)S/C(=C\c2ccccc2Cl)C1=O)C1CCS(=O)(=O)C1` (stereo not given), the Potency was inconclusive: 18.3 µM [activator, single point]. In the case of `O=C(Nc1ccc(Cl)c(Cl)c1)c1cccnc1`, the Potency is reported as inconclusive: 25.1 µM [activator, single point]. With `CCCCn1c(N)c(N(CC(C)C)C(=O)c2ccc(Br)s2)c(=O)[nH]c1=O` the Potency was “inactive”. With `CCOC(=O)CNC(=O)CSc1ccc2nnc(-c3cccnc3)n2n1` the Potency was “inactive”. With `CC(=O)Nc1ccc(S(=O)(=O)NCc2nc(-c3ccccc3C)no2)cc1` the Potency was “inactive”. In the case of `COc1ccc(/C=N/NC(=O)CCn2nc(C)cc2C)cc1`, the Potency is reported as inconclusive: 16.4 µM [inhibitor, partial curve, poor fit]. With `CC(=O)NC1(C(F)(F)F)C(=O)Nc2c1c(=O)[nH]c(=O)n2CCc1ccccc1` (stereo not given) the Potency was “inactive”. For `O=C(NC1=NCCS1)c1cc2ccccc2o1`, the Potency was inconclusive: 0.794 µM [activator, full curve]. For `N#Cc1ccc(CN2CCN(CC(=O)Nc3ccccc3C(=O)NC3CC3)CC2)cc1`, the Potency was inconclusive: 9.2 µM [inhibitor, partial curve]. In the case of `CC(Sc1nncn1C)C(=O)Nc1nnc(-c2ccccc2)s1` (stereo not given), the Potency is reported as inconclusive: 18.4 µM [activator, partial curve]. For `O=[N+]([O-])c1ccc2nonc2c1Nc1cccc(F)c1`, the Potency was “inactive”. In the case of `COC(=O)CCCC1=CC2=C(c3ccccc3)C(=O)C(C)(OC(=O)C3CCCC3)C(=O)C2=CN1CC1CC1` (stereo not given), the Potency is reported as inconclusive: 1.16 µM [inhibitor, single point]. With `COCCN(CCOC)C(=O)c1ccc(SCc2ccc(C)cc2)c([N+](=O)[O-])c1` the Potency was inconclusive: 29.1 µM [inhibitor, single point]. With `CCOC(=O)c1ccccc1NC(=O)c1ccc2nc[nH]c2c1` the Potency was inconclusive: 14.6 µM [inhibitor, partial curve, poor fit]. For `COCCCNC(=O)c1cccc(OC)c1OC`, the Potency was inconclusive: 29.1 µM [activator, single point]. For `CCCCN1C(=O)c2ccc(C(=O)NC3(C)CCS(=O)(=O)C3)cc2C1=O` (stereo not given), the Potency was inconclusive: 8.91 µM [activator, partial curve]. With `O=C(c1cc(COc2ccc(F)cc2F)on1)N1CC2C[C@@H]3CC1C[C@H](C2)C3` the Potency was inconclusive: 20.6 µM [activator, partial curve]. In the case of `Cc1cccc(-c2nnc(SCCOc3ccc4c(C)cc(=O)oc4c3)o2)c1`, the Potency is reported as inconclusive: 20.6 µM [inhibitor, partial curve]. In the case of `COc1ccc2cc(C(=O)N3CCc4ccccc43)[nH]c2c1`, the Potency is reported as inconclusive: 2.91 µM [activator, full curve]. In the case of `CCN(CC)S(=O)(=O)c1ccc2oc(C(=O)N3CCOCC3)c(C)c2c1`, the Potency is reported as “inactive”. With `CCOc1ccc(NC(=O)CN(C)S(=O)(=O)c2ccc(-c3ccc(=O)[nH]n3)s2)cc1` the Potency was inconclusive: 20.6 µM [inhibitor, partial curve, poor fit]. For `CCN(/N=C/c1ccc(N(C)C)cc1)c1nc2ccccc2[nH]1`, the Potency was inconclusive: 29.1 µM [inhibitor, single point]. In the case of `Cc1cc(OCC(=O)OCC(=O)NC2CCCCC2C)ccc1Cl` (stereo not given), the Potency is reported as inconclusive: 16.4 µM [activator, partial curve, poor fit]. In the case of `COc1cc(NC(=O)c2cncc(-c3ccc(C#N)cc3)c2)cc(C(=O)Nc2cccc(C(F)(F)F)c2)c1`, the Potency is reported as inconclusive: 18.3 µM [activator, single point]. In the case of `COc1ccc([N+](=O)[O-])c(S(=O)(=O)c2ccc(Cl)cc2)n1`, the Potency is reported as “inactive”. With `O=[N+]([O-])c1cccc(S(=O)(=O)N2CCN(c3ccccn3)CC2)c1` the Potency was inconclusive: 6.51 µM [inhibitor, single point]. In the case of `NCC(=O)N1CCC(C(=O)N[C@@H](Cc2c[nH]c3ccccc23)C(=O)O)CC1`, the Potency is reported as inconclusive: 16.4 µM [activator, single point]. For `c1ccc2c(c1)nc1n2CC2CON(C3CCCCC3)C12` (stereo not given), the Potency was inconclusive: 29.1 µM [activator, single point]. In the case of `N#C/C(=C\c1ccco1)C(=O)NCC1CCCO1` (stereo not given), the Potency is reported as inconclusive: 20.6 µM [activator, single point]. In the case of `CC(NC(=O)COC(=O)c1nc(Cl)ccc1Cl)c1ccccc1` (stereo not given), the Potency is reported as inconclusive: 23.1 µM [activator, partial curve, poor fit]. In the case of `COc1ccccc1NC(=O)C1=C(C)NC2=C(C(=O)CCC2)C1c1ccc(C)o1` (stereo not given), the Potency is reported as “inactive”. For `CCOC(=O)CNC(=O)CSc1ncnc2c1nnn2-c1ccc(F)cc1`, the Potency was inconclusive: 18.4 µM [activator, partial curve, poor fit]. For `CC(C)C(=O)Nc1ccc(NC(=O)c2cccs2)cn1`, the Potency was inconclusive: 10.3 µM [activator, partial curve]. For `Cc1cc(C)n(-c2nc(NCC(C)O)c3c4c(sc3n2)COC(C)(C)C4)n1` (stereo not given), the Potency was active: 14.6 µM. For `CCOc1cc(N2CCOCC2)c(OCC)cc1NC(=O)c1ccc(OC)cc1`, the Potency was inconclusive: 23.1 µM [inhibitor, partial curve, poor fit]. With `CCCOc1ccc(-c2nc(N3CCN(C)CC3)c3ccccc3n2)cc1` the Potency was inconclusive: 5.17 µM [activator, partial curve]. In the case of `COc1ccc(NC(=O)NC(=O)c2cc(OCC(F)(F)F)ccc2OCC(F)(F)F)cc1`, the Potency is reported as inconclusive: 23.1 µM [inhibitor, single point]. For `O=C(CCCCCn1c(=O)[nH]c2ccccc2c1=O)NCCCN1CCN(c2ccccc2F)CC1`, the Potency was active: 23.1 µM. In the case of `CN1CC[C@]2(CCN3CCc4c(oc5ccccc45)[C@@H]3C2)N(C)C1=O`, the Potency is reported as inconclusive: 7.08 µM [activator, full curve, poor fit]. With `COc1ccc(NS(=O)(=O)c2ccc(N3CCCC3)c(N)c2)cc1` the Potency was inconclusive: 6.51 µM [inhibitor, single point]. In the case of `O=C1CCc2cc(S(=O)(=O)NC3CCCCC3)cc3c2N1CC3`, the Potency is reported as inconclusive: 14.6 µM [activator, single point]. For `CCn1cc(C(=O)NCC(OC)OC)c(=O)c2cc(S(=O)(=O)N3CCC(C)CC3)ccc21`, the Potency was active: 2.59 µM.
